{"source": "PubChem BioAssay AID602196 | INSERM | 2012", "screen": "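Modifiers of cisplatin sensitivity in A549 cells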", "cell system": "human A549 lung cancer cells", "reagents": "siRNA pair against human genes", "time to read-out": "48 h transfection before cisplatin; time from cisplatin to read-out not stated", "challenge": "cisplatin at a dose killing half of control-siRNA cells; exact dose and duration not given", "read-out": "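Shift in cisplatin death relative to control siRNA, from -50 (all cells die) to +50 (no cells die); siRNAs harmful on their own scored 0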", "reading the numbers": "two-siRNA summed score (-2 to +2): higher = both siRNAs protect from cisplatin killing; -2 means both sensitise; mean protection from cisplatin (shift in death): higher = protection from cisplatin killing", "call rule": "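Each siRNA scores 0 if harmful alone by LDH or WST-1, otherwise +1 if it reduces and -1 if it increases cisplatin killing; a gene is active when both siRNAs agree (sum +2 or -2)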", "meaning of the calls": "active = both siRNAs shift cisplatin killing the same way; inactive = no consistent shift, or siRNA harmful alone", "note": "Shown is one part, drawn at random, of about 23,000 reagents tested. Of all reagents, 455 (2%) are marked active. 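Active includes both protection and sensitisation; some change values fall well beyond the stated -50 to +50 range.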 Unmarked entries are inactive. Not all columns of the deposit are shown. Not stated in the record: the amount of reagent."}
{"gene": "PINLYP", "two-siRNA summed score (-2 to +2)": 1, "mean protection from cisplatin (shift in death) (%)": 12.3}
{"gene": "SAT2", "two-siRNA summed score (-2 to +2)": 0, "mean protection from cisplatin (shift in death) (%)": 0.5}
{"gene": "SH3GLB2", "two-siRNA summed score (-2 to +2)": 0, "mean protection from cisplatin (shift in death) (%)": 11.5}
{"gene": "NRIP2", "two-siRNA summed score (-2 to +2)": 0, "mean protection from cisplatin (shift in death) (%)": 10.2}
{"gene": "HPSE2", "two-siRNA summed score (-2 to +2)": 0, "mean protection from cisplatin (shift in death) (%)": -0.4}
{"gene": "PDK4", "two-siRNA summed score (-2 to +2)": "2 (active)", "mean protection from cisplatin (shift in death) (%)": 31.2}
{"gene": "LOC283117", "two-siRNA summed score (-2 to +2)": 1, "mean protection from cisplatin (shift in death) (%)": 11.7}
{"gene": "CRLS1", "two-siRNA summed score (-2 to +2)": 0, "mean protection from cisplatin (shift in death) (%)": -0.6}
{"gene": "ATG13", "two-siRNA summed score (-2 to +2)": 0, "mean protection from cisplatin (shift in death) (%)": 17.5}
{"gene": "PXDN", "two-siRNA summed score (-2 to +2)": 0, "mean protection from cisplatin (shift in death) (%)": -14.2}
{"gene": "LOC389153", "two-siRNA summed score (-2 to +2)": 0, "mean protection from cisplatin (shift in death) (%)": 0.2}
{"gene": "SCAF4", "two-siRNA summed score (-2 to +2)": "2 (active)", "mean protection from cisplatin (shift in death) (%)": 17.2}
{"gene": "UNC13B", "two-siRNA summed score (-2 to +2)": 0, "mean protection from cisplatin (shift in death) (%)": -11.6}
{"gene": "PSMG3", "two-siRNA summed score (-2 to +2)": -1, "mean protection from cisplatin (shift in death) (%)": -2}
{"gene": "LOC442230", "two-siRNA summed score (-2 to +2)": 0, "mean protection from cisplatin (shift in death) (%)": 8.2}
{"gene": "EPPK1", "two-siRNA summed score (-2 to +2)": 0, "mean protection from cisplatin (shift in death) (%)": -0.3}
{"gene": "UBALD2", "two-siRNA summed score (-2 to +2)": 1, "mean protection from cisplatin (shift in death) (%)": 11.9}
{"gene": "PAK4", "two-siRNA summed score (-2 to +2)": 0, "mean protection from cisplatin (shift in death) (%)": -2.5}
{"gene": "KLC4", "two-siRNA summed score (-2 to +2)": 0, "mean protection from cisplatin (shift in death) (%)": -0.7}
{"gene": "OR4K2", "two-siRNA summed score (-2 to +2)": 0, "mean protection from cisplatin (shift in death) (%)": 4}
{"gene": "TRIM31", "two-siRNA summed score (-2 to +2)": 0, "mean protection from cisplatin (shift in death) (%)": 3.4}

In a second layout: entries from further up.
PDK4
- two-siRNA summed score (-2 to +2): 2 (active)
- mean protection from cisplatin (shift in death) (%): 31.2

LOC283117
- two-siRNA summed score (-2 to +2): 1
- mean protection from cisplatin (shift in death) (%): 11.7
